Results as given in patent publication US20060281081A1.
No constants are given. Whether binding was seen depends on the method and setting. For part of these data: Binding seen in cells or lysates may run through a third protein. Some entries that bind do so weakly or less than the wild type. For part of these data: Sequences can lack the tags named with a protein. Blank lines part the entries; values can stand above or below the binder they belong to.

Columns and labels:
[1] = target: HA-tagged CENPC1 (human) (UniProt Q03188); test: co-immunoprecipitation: anti-Flag M2 IP, anti-HA immunoblot
[2] = target: HA-tagged CENPC1 (human) (UniProt Q03188); test: co-immunoprecipitation from COS7 cells: anti-Flag IP, anti-HA western blot
[3] = target: T1, HA-tagged Zyxin (UniProt Q15942); test: co-immunoprecipitation from HeLa cells: anti-Flag IP, anti-HA western blot
T1 sequence (looked up): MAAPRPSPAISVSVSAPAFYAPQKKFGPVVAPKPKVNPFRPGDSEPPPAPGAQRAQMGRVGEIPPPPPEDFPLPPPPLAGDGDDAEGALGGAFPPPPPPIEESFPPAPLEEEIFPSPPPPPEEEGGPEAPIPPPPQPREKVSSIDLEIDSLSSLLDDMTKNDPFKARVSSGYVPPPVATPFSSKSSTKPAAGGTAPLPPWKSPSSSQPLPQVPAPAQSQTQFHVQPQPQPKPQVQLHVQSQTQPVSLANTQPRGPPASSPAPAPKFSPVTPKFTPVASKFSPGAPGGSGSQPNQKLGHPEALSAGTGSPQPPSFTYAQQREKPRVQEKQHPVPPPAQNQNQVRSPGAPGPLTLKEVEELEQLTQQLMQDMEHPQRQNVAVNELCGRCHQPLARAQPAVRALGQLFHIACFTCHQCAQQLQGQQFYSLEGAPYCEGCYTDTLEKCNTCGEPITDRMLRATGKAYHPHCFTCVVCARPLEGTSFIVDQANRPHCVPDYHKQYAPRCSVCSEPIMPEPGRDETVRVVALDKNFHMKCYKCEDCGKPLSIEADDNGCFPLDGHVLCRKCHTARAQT

[4] = target: T1, HA-tagged Zyxin; test: co-immunoprecipitation: anti-Flag M2 IP, anti-HA immunoblot
[5] = target: T2, SOX30 (yeast two-hybrid clone from human testis cDNA library) (human) (UniProt O94993); test: yeast two-hybrid screen, confirmed by simultaneous transformation
T2 sequence (looked up): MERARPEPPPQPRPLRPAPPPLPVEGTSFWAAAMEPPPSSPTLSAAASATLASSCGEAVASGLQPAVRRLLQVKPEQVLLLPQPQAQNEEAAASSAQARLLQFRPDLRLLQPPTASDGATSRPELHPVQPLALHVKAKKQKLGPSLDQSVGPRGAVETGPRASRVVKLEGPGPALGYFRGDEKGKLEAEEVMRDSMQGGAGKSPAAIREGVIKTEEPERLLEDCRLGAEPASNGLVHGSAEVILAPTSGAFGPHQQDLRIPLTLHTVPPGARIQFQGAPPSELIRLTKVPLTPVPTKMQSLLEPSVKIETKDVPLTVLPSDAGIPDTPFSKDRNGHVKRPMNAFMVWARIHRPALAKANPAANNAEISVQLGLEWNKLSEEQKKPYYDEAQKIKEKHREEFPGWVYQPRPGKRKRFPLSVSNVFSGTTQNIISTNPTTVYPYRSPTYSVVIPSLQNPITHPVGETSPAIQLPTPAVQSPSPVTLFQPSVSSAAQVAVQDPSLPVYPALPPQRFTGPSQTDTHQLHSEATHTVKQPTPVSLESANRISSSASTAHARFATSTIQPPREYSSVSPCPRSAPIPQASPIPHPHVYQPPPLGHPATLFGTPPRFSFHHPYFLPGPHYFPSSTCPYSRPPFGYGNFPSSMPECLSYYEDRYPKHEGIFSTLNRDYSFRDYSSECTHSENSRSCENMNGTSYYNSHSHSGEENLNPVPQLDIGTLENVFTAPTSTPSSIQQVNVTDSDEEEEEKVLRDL

[6] = target: CENPC1 (yeast two-hybrid clone from human testis cDNA library) (human) (UniProt Q03188); test: as above

- binding [1]: binds
- binding [2]: binds
B1: Flag-tagged NFXL1 (protein, not shown: small tags and cut ends)
chain: MEASWRQVAGGRGRSRGRATAAPSGNGVHLRGAGGGREKGSVGAVPSGTSPGGVATTAAAGSRHSPAGSQALQTTAASELMSQKKFEEIKKANQAAARKLVEEQFSSSSEEGDEDFEGKQGKILANTFITYTTQTDGDTRELERTKQYVNEAFQAGAMTCLICIASVKRNQAVWSCSGCFCIFHMPCIQKWAKDSQFLVSSVTDDDFGKKDCPWPCPKCRFEYKRSETPSRYYCYCGKVEDPPLDPWLVPHSCGQVCEREFKPPCGHKCLLLCHPGPCPPCPKMVTTTCYCKKAKPIPRRCSAKEWSCQLPCGQKLLCGQHKCENPCHAGSCQPCPRVSRQKCVCGKKVAERSCASPLWHCDQVCGKTLPCGNHTCEQVCHVGACGECPRSGKRFCPCQKSKFSLPCTEDVPTCGDSCDKVLECGIHRCSQRCHRGPCETCRQEVEKHCRCGKHTKRMPCHKPYLCETKCVKMRDCQKHQCRRKCCPGNCPPCDQNCGRTLGCRNHKCPSVCHRGSCYPCPETVDVKCNCGNTKVTVPCGRERTTRPPKCKEQCSRPPTCHHTSQEKHRCHFGSCPPCHQPCQKVLEKCGHLCPAPCHDQALIKQTGRHQPTGPWEQPSEPAFIQTALPCPPCQVPIPMECLGKHEVSPLPCHAVGPYSCKRVCGRILDCQNHTCMKECHKVTKTDGCTGKNKAGPECLHCEEGCSKSRPLGCLHPCILRCHPGECPPCVQMLRIKCHCKITSLYVECRKITTADVNEKNLLSCCKNQCPKELPCGHRCKEMCHPGECPFNCNQKVKLRCPCKRIKKELQCNKVRENQVSIECDTTCKEMKRKASEIKEAEAKAALEEEKRRQQAELEAFENRLKGRRKKNRKRDEVAVELSLWQKHKHYLISVCGVVVVVFAWYITHDVN

- binding [3]: binds
- binding [4]: binds
B2: Flag-tagged ARHCL1 (protein, not shown: small tags and cut ends)
chain: MLTRVKSAVANFMGGIMAGSSGSEHGGGSCGGSDLPLRFPYGRPEFLGLSQDEVECSADHIARPILILKETRRLPWATGYAEVINAGKSTHNEDQASCEVLTVKKKAGAVTSTPNRNSSKRRSSLPNGEGLQLKENSESEGVSCHYWSLFDGHAGSGAAVVASRLLQHHITEQLQDIVDILKNSAVLPPTCLGEEPENTPANSRTLTRAASLRGGVGAPGSPSTPPTRFFTEKKIPHECLVIGALESAFKEMDLQIERERSSYNISGGCTALIVICLLGKLYVANAGDSRAIIIRNGEIIPMSSEFTPETERQRLQYLAFMQPHLLGNEFTHLEFPRRVQRKELGKKMLYRDFNMTGWAYKTIEDEDLKFPLIYGEGKKARVMATIGVTRGLGDHDLKVHDSNIYIKPFLSSAPEVRIYDLSKYDHGSDDVLILATDGLWDVLSNEEVAEAITQFLPNCDPDDPHRYTLAAQDLVMRARGVLKDRGWRISNDRLGSGDDISVYVIPLIHGNKLS

- binding [5]: binds
- binding [6]: binds
B3: N-terminal region of NFXL1 (NFXL1-N), yeast two-hybrid bait from pAS2-NFXL1-N (protein, not shown: small tags and cut ends)
chain: MEASWRQVAGGRGRSRGRATAAPSGNGVHLRGAGGGREKGSVGAVPSGTSPGGVATTAAAGSRHSPAGSQALQTTAASELMSQKKFEEIKKANQAAARKLVEEQFSSSSEEGDEDFEGKQGKILANTFITYTTQTDGDTRELERTKQYVNEAFQAGAMTCLICIASVKRNQAVWSCSGCFCIFHMPCIQKWAKDSQFLVSSVTDDDFGKKDCPWPCPKCRFEYKRSETPSRYYCYCGKVEDPPLDPWLVPHSCGQVCEREFKPP
